The other results are listed elsewhere or left out. Single values are uncertain, as repeats are few or missing.
Tested on: Saccharomyces cerevisiae BY4743
Test: growth (OD600) relative to untreated control; higher = less growth inhibition
Details: compound concentration: 133 uM; 20 h
Experimental: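 NMCCC compounds (133 uM, no IPBC) tested alone against Saccharomyces cerevisiae BY4743 in YPD, 96-well plates, starting OD600 ~0.1. Growth was read as OD600 at 20 h and expressed as % of the untreated control. Single pass.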

SMILES	growth [%]
COc1ccc(CCNC(=O)c2ccc(Cn3cc(Cl)cn3)cc2)cc1	88.4
CC(C)OCCN1CCc2cc(S(=O)(=O)N(C)C)ccc21	104
COc1ccccc1OCCn1c(=O)oc2ccc(C)cc21	107
COC(=O)c1sc2nc(C)nc(N(C)Cc3cccnc3)c2c1C	106
COC(=O)c1cc(NC(=O)c2cc(S(N)(=O)=O)ccc2N2CCOCC2)ccc1F	92.9
CC1=CC=C(C=C1)[S](=O)(=O)N2\C=C/C3=CC=CC=C3C2C#N (stereo not drawn)	97.3
COc1cc(Br)c(CC(=O)OCC(=O)N2CCNC2=O)cc1OC	103
CCS(=O)(=O)c1ccc2oc(SCC(=O)N3CC(C)OC(C)C3)nc2c1 (stereo not drawn)	93.2
CC(C)[C@H](NC(=O)Cc1ccccc1)C(=O)OCC(=O)N1CCN(c2cccc(Cl)c2)CC1	97.1
Clc1nc(NCc2ccco2)c2[nH]cnc2n1	96.1
CCN(CCN(C)C)C(=O)c1cc2c(s1)-c1ccc(Cl)cc1S(=O)(=O)C2	110
COc1ccc(-c2cc(C(=O)NCc3nccn3C)on2)cc1	104
COC1=CC=CC2=C1N(CC3=CC=CC(=C3)Cl)\C=C(C#N)/C2=O	105
Cc1ccccc1-c1nnc(SCC(=O)NCC2CCCO2)o1 (stereo not drawn)	100
CN1\C(=C/C(=N\[S]1(=O)=O)C2=CC=C(F)C=C2)C(=O)NC3=CC=C(C=C3)C(C)=O	90.2
Cc1c(C(=O)O)cc(-c2ccc(F)cc2)n1C	101
CCN(c1ccc(-c2csc(N3CCN(C)CC3)n2)cc1)S(C)(=O)=O	105
CC(=O)NC(C(=O)N1CCN(Cc2nnc3n2CCCCC3)CC1)C(C)C (stereo not drawn)	106
CC(C)CCNC(=O)Cn1c(=O)[nH]c2c(-c3ccccc3F)c[nH]c2c1=O	80.5

SMILES	growth [%]
O=C(NCCO)c1nnc(Cc2ccc3c(c2)OCO3)o1	93.5
O=C(COc1ncnc2ccc(Br)cc12)NCC1CCCO1 (stereo not drawn)	93.2
CSc1ccc(CCNC(=O)CN(C)c2nnc(N3CCCC3=O)s2)cc1	109
COc1ccc(Cc2nnc(SCC(N)=O)n2-c2ccccc2)cc1Cl	105
COC(=O)C[C@H](NC(=O)N1CCSCC1c1ccc(OC)cc1)C(=O)OC (stereo partly drawn)	103
CCC(C)C1=CC=C(NC(=O)\C2=C\C3=CC=CC=C3C(=O)O2)C=C1 (stereo not drawn)	103
Cc1csc(SCC(=O)NC(C)C(c2ccccc2)N2CCOCC2)n1 (stereo not drawn)	90.5
CC(C)(C)c1csc(NC(=O)c2csc(-c3ccsc3)n2)n1	76.3
CCOc1ccc(CNc2nc3nc(C)c(C)c(O)n3n2)cc1	109
CCC1CCCCN1C(=O)COC(=O)c1[nH]c(C)c(C(C)=O)c1C (stereo not drawn)	102
CCN(CC)CCNC(=O)c1cnn(-c2cccc(C)c2)c1-n1cccc1	105
CCS(=O)(=O)N1Cc2ccccc2CC1C(=O)Nc1ccc(Br)cc1F (stereo not drawn)	104
N#Cc1ccc(CCC(=O)OCc2nnnn2-c2ccccc2)cc1	90.5
Cc1ccc(OCC(=O)Nc2cc(-c3ccc(F)c(F)c3)no2)cc1C	89.1
CN(CCO)c1nc2c(c(=O)n(Cc3ccc(Cl)cc3)c(=O)n2C)n1C	110
CCOC(=O)N1CCN(C(=O)Cn2nc(C)c3ccccc32)CC1	103
CN(CCOC1=CC=CC=C1)[S](=O)(=O)\C2=C\N(C)C(=O)N(C)C2=O	102
CC(=O)c1c[nH]c(C(=O)OCC(=O)N2CC(=O)Nc3ccccc32)c1	93.6
COc1ccc(Cl)cc1-c1n[nH]c(SCC(=O)NC(C)(C#N)C(C)C)n1 (stereo not drawn)	114

A different layout for two compounds above.
SMILES,growth [%]
CN(CCOC1=CC=CC=C1)[S](=O)(=O)\C2=C\N(C)C(=O)N(C)C2=O,102
CC(=O)c1c[nH]c(C(=O)OCC(=O)N2CC(=O)Nc3ccccc32)c1,93.6

Source: the supplement of paper PMC8007513
